{"source": "patent US9926581B2", "about": "“Fagopyritol synthase genes and uses thereof” (Cornell Research Foundation, Inc., priority 2002, dated 2018)", "system": "soybean explants", "experiment": "Soybean explant feeding 3 days with 50 mM cyclitol in 1% sucrose, slow drying time course, soluble carbohydrates in axis, cotyledon, seed coat and leaf", "key": {"[1]": {"details": "3 days transport of sucrose (1%) and D-pinitol (50 mM), after 4 days slow drying, Rep 2"}, "[2]": {"details": "3 days transport of sucrose (1%) and D-pinitol (50 mM), after 14 days slow drying, Rep 1"}, "[3]": {"details": "3 days transport of sucrose (1%) and D-pinitol (50 mM), after 14 days slow drying, Rep 2"}, "[4]": {"details": "3 days transport of sucrose (1%) and D-pinitol (50 mM), before slow drying, Rep 1"}, "[5]": {"details": "3 days transport of sucrose (1%) and D-pinitol (50 mM), before slow drying, Rep 2"}, "[6]": {"details": "3 days transport of sucrose (1%) and myo-inositol (50 mM), after 2 days slow drying, Rep 1"}, "[7]": {"details": "3 days transport of sucrose (1%) and myo-inositol (50 mM), after 2 days slow drying, Rep 2"}, "[8]": {"details": "3 days transport of sucrose (1%) and myo-inositol (50 mM), after 4 days slow drying, Rep 1"}, "[9]": {"details": "3 days transport of sucrose (1%) and myo-inositol (50 mM), after 4 days slow drying, Rep 2"}, "[10]": {"details": "3 days transport of sucrose (1%) and myo-inositol (50 mM), after 14 days slow drying, Rep 1"}, "[11]": {"details": "3 days transport of sucrose (1%) and myo-inositol (50 mM), after 14 days slow drying, Rep 2"}, "[12]": {"details": "3 days transport of sucrose (1%) and myo-inositol (50 mM), before slow drying, Rep 1"}, "[13]": {"details": "3 days transport of sucrose (1%) and myo-inositol (50 mM), before slow drying, Rep 2"}, "[14]": {"details": "3 days transport of sucrose (1%) without cyclitols, after 2 days slow drying, Rep 1"}, "[15]": {"details": "3 days transport of sucrose (1%) without cyclitols, after 2 days slow drying, Rep 2"}, "[16]": {"details": "3 days transport of sucrose (1%) without cyclitols, after 4 days slow drying, Rep 1"}, "[17]": {"details": "3 days transport of sucrose (1%) without cyclitols, after 4 days slow drying, Rep 2"}, "[18]": {"details": "3 days transport of sucrose (1%) without cyclitols, after 14 days slow drying, Rep 1"}, "[19]": {"details": "3 days transport of sucrose (1%) without cyclitols, after 14 days slow drying, Rep 2"}, "[20]": {"details": "3 days transport of sucrose (1%) without cyclitols, before slow drying, Rep 1"}, "[21]": {"details": "3 days transport of sucrose (1%) without cyclitols, before slow drying, Rep 2"}}, "data": [{"smiles": "OC[C@H]1O[C@H](OC2[C@@H](O)[C@H](O)C(O)[C@H](O)[C@@H]2O)[C@H](O)[C@@H](O)[C@H]1O", "note": "(stereo partly drawn) [Galactinol, galactinol, reference compound]", "values": [{"measurement": "Accumulation of soluble carbohydrates in soybean seed coat", "setting": "3 days transport of sucrose (1%) and D-pinitol (50 mM), after 4 days slow drying, Rep 1", "value": 0, "unit": "μg/seed coat"}, {"measurement": "Accumulation of soluble carbohydrates in soybean axis", "setting": "[1]", "value": 2.87, "unit": "μg/axis"}, {"measurement": "Accumulation of soluble carbohydrates in soybean cotyledon", "setting": "[1]", "value": 37.07, "unit": "μg/cotyledon"}, {"measurement": "Accumulation of soluble carbohydrates in soybean seed coat", "setting": "[1]", "value": 0, "unit": "μg/seed coat"}, {"measurement": "Accumulation of soluble carbohydrates in soybean axis", "setting": "[2]", "value": 3.92, "unit": "μg/axis"}, {"measurement": "Accumulation of soluble carbohydrates in soybean cotyledon", "setting": "[2]", "value": 11.23, "unit": "μg/cotyledon"}, {"measurement": "Accumulation of soluble carbohydrates in soybean seed coat", "setting": "[2]", "value": 0, "unit": "μg/seed coat"}, {"measurement": "Accumulation of soluble carbohydrates in soybean axis", "setting": "[3]", "value": 4.18, "unit": "μg/axis"}, {"measurement": "Accumulation of soluble carbohydrates in soybean cotyledon", "setting": "[3]", "value": 10.39, "unit": "μg/cotyledon"}, {"measurement": "Accumulation of soluble carbohydrates in soybean seed coat", "setting": "[3]", "value": 2.77, "unit": "μg/seed coat"}, {"measurement": "Accumulation of soluble carbohydrates in soybean axis", "setting": "[4]", "value": 2.27, "unit": "μg/axis"}, {"measurement": "Accumulation of soluble carbohydrates in soybean cotyledon", "setting": "[4]", "value": 0, "unit": "μg/cotyledon"}, {"measurement": "Accumulation of soluble carbohydrates in soybean axis", "setting": "[5]", "value": 2.97, "unit": "μg/axis"}, {"measurement": "Accumulation of soluble carbohydrates in soybean cotyledon", "setting": "[5]", "value": 0, "unit": "μg/cotyledon"}, {"measurement": "Accumulation of soluble carbohydrates in soybean axis", "setting": "[6]", "value": 12.80, "unit": "μg/axis"}, {"measurement": "Accumulation of soluble carbohydrates in soybean cotyledons", "setting": "[6]", "value": 85.06, "unit": "μg/cotyledon"}, {"measurement": "Accumulation of soluble carbohydrates in soybean seed coats", "setting": "[6]", "value": 0, "unit": "μg/seed coat"}, {"measurement": "Accumulation of soluble carbohydrates in soybean axis", "setting": "[7]", "value": 10.83, "unit": "μg/axis"}, {"measurement": "Accumulation of soluble carbohydrates in soybean cotyledons", "setting": "[7]", "value": 104.07, "unit": "μg/cotyledon"}, {"measurement": "Accumulation of soluble carbohydrates in soybean seed coats", "setting": "[7]", "value": 0, "unit": "μg/seed coat"}, {"measurement": "Accumulation of soluble carbohydrates in soybean axis", "setting": "[8]", "value": 7.31, "unit": "μg/axis"}, {"measurement": "Accumulation of soluble carbohydrates in soybean cotyledons", "setting": "[8]", "value": 57.03, "unit": "μg/cotyledon"}, {"measurement": "Accumulation of soluble carbohydrates in soybean axis", "setting": "[9]", "value": 4.07, "unit": "μg/axis"}, {"measurement": "Accumulation of soluble carbohydrates in soybean cotyledons", "setting": "[9]", "value": 25.34, "unit": "μg/cotyledon"}, {"measurement": "Accumulation of soluble carbohydrates in soybean seed coats", "setting": "[9]", "value": 0, "unit": "μg/seed coat"}, {"measurement": "Accumulation of soluble carbohydrates in soybean axis", "setting": "[10]", "value": 6.76, "unit": "μg/axis"}, {"measurement": "Accumulation of soluble carbohydrates in soybean cotyledons", "setting": "[10]", "value": 14.65, "unit": "μg/cotyledon"}, {"measurement": "Accumulation of soluble carbohydrates in soybean seed coats", "setting": "[10]", "value": 2.61, "unit": "μg/seed coat"}, {"measurement": "Accumulation of soluble carbohydrates in soybean axis", "setting": "[11]", "value": 4.14, "unit": "μg/axis"}, {"measurement": "Accumulation of soluble carbohydrates in soybean cotyledons", "setting": "[11]", "value": 14.10, "unit": "μg/cotyledon"}, {"measurement": "Accumulation of soluble carbohydrates in soybean seed coats", "setting": "[11]", "value": 2.91, "unit": "μg/seed coat"}, {"measurement": "Accumulation of soluble carbohydrates in soybean axis", "setting": "[12]", "value": 3.01, "unit": "μg/axis"}, {"measurement": "Accumulation of soluble carbohydrates in soybean cotyledons", "setting": "[12]", "value": 0, "unit": "μg/cotyledon"}, {"measurement": "Accumulation of soluble carbohydrates in soybean axis", "setting": "[13]", "value": 3.59, "unit": "μg/axis"}, {"measurement": "Accumulation of soluble carbohydrates in soybean cotyledons", "setting": "[13]", "value": 0, "unit": "μg/cotyledon"}, {"measurement": "Accumulation of soluble carbohydrates in soybean axis", "setting": "[14]", "value": 11.09, "unit": "μg/axis"}, {"measurement": "Accumulation of soluble carbohydrates in soybean cotyledon", "setting": "[14]", "value": 83.71, "unit": "μg/cotyledon"}, {"measurement": "Accumulation of soluble carbohydrates in soybean seed coats", "setting": "[14]", "value": 0, "unit": "μg/seed coat"}, {"measurement": "Accumulation of soluble carbohydrates in soybean axis", "setting": "[15]", "value": 13.41, "unit": "μg/axis"}, {"measurement": "Accumulation of soluble carbohydrates in soybean cotyledon", "setting": "[15]", "value": 166.27, "unit": "μg/cotyledon"}, {"measurement": "Accumulation of soluble carbohydrates in soybean seed coats", "setting": "[15]", "value": 0, "unit": "μg/seed coat"}, {"measurement": "Accumulation of soluble carbohydrates in soybean axis", "setting": "[16]", "value": 5.60, "unit": "μg/axis"}, {"measurement": "Accumulation of soluble carbohydrates in soybean cotyledon", "setting": "[16]", "value": 52.22, "unit": "μg/cotyledon"}, {"measurement": "Accumulation of soluble carbohydrates in soybean seed coats", "setting": "[16]", "value": 1.50, "unit": "μg/seed coat"}, {"measurement": "Accumulation of soluble carbohydrates in soybean axis", "setting": "[17]", "value": 4.29, "unit": "μg/axis"}, {"measurement": "Accumulation of soluble carbohydrates in soybean cotyledon", "setting": "[17]", "value": 25.06, "unit": "μg/cotyledon"}, {"measurement": "Accumulation of soluble carbohydrates in soybean seed coats", "setting": "[17]", "value": 0, "unit": "μg/seed coat"}, {"measurement": "Accumulation of soluble carbohydrates in soybean axis", "setting": "[18]", "value": 4.38, "unit": "μg/axis"}, {"measurement": "Accumulation of soluble carbohydrates in soybean cotyledon", "setting": "[18]", "value": 28.60, "unit": "μg/cotyledon"}, {"measurement": "Accumulation of soluble carbohydrates in soybean seed coats", "setting": "[18]", "value": 0, "unit": "μg/seed coat"}, {"measurement": "Accumulation of soluble carbohydrates in soybean axis", "setting": "[19]", "value": 4.27, "unit": "μg/axis"}, {"measurement": "Accumulation of soluble carbohydrates in soybean cotyledon", "setting": "[19]", "value": 26.57, "unit": "μg/cotyledon"}, {"measurement": "Accumulation of soluble carbohydrates in soybean seed coats", "setting": "[19]", "value": 1.66, "unit": "μg/seed coat"}, {"measurement": "Accumulation of soluble carbohydrates in soybean axis", "setting": "[20]", "value": 1.20, "unit": "μg/axis"}, {"measurement": "Accumulation of soluble carbohydrates in soybean cotyledon", "setting": "[20]", "value": 1.88, "unit": "μg/cotyledon"}, {"measurement": "Accumulation of soluble carbohydrates in soybean axis", "setting": "[21]", "value": 5.49, "unit": "μg/axis"}, {"measurement": "Accumulation of soluble carbohydrates in soybean cotyledon", "setting": "[21]", "value": 2.16, "unit": "μg/cotyledon"}]}]}
